Experiment in all cases: affinity purification with mass spectrometry; anti-Myc (MMS19-Myc) or anti-Flag (CIA1-Flag, CIA2-Flag) antibody-conjugated beads on extracts of flowers or seedlings of transgenic plants; CIA1-Flag and CIA2-Flag in the wild-type background, also done in the mms19 mutant background; lysis buffer 50 mM Tris-HCl pH 7.6, 150 mM NaCl, 5 mM MgCl2, 10% glycerol, 0.1% NP-40, 0.5 mM DTT; 4 °C; wild-type plants as control

By UniProt entry, the sequences of proteins in these tests, tags left out. Where a name states a change or a piece, a line headed by the entry shows the natural chain unless it says otherwise.
UniProt F4HW04: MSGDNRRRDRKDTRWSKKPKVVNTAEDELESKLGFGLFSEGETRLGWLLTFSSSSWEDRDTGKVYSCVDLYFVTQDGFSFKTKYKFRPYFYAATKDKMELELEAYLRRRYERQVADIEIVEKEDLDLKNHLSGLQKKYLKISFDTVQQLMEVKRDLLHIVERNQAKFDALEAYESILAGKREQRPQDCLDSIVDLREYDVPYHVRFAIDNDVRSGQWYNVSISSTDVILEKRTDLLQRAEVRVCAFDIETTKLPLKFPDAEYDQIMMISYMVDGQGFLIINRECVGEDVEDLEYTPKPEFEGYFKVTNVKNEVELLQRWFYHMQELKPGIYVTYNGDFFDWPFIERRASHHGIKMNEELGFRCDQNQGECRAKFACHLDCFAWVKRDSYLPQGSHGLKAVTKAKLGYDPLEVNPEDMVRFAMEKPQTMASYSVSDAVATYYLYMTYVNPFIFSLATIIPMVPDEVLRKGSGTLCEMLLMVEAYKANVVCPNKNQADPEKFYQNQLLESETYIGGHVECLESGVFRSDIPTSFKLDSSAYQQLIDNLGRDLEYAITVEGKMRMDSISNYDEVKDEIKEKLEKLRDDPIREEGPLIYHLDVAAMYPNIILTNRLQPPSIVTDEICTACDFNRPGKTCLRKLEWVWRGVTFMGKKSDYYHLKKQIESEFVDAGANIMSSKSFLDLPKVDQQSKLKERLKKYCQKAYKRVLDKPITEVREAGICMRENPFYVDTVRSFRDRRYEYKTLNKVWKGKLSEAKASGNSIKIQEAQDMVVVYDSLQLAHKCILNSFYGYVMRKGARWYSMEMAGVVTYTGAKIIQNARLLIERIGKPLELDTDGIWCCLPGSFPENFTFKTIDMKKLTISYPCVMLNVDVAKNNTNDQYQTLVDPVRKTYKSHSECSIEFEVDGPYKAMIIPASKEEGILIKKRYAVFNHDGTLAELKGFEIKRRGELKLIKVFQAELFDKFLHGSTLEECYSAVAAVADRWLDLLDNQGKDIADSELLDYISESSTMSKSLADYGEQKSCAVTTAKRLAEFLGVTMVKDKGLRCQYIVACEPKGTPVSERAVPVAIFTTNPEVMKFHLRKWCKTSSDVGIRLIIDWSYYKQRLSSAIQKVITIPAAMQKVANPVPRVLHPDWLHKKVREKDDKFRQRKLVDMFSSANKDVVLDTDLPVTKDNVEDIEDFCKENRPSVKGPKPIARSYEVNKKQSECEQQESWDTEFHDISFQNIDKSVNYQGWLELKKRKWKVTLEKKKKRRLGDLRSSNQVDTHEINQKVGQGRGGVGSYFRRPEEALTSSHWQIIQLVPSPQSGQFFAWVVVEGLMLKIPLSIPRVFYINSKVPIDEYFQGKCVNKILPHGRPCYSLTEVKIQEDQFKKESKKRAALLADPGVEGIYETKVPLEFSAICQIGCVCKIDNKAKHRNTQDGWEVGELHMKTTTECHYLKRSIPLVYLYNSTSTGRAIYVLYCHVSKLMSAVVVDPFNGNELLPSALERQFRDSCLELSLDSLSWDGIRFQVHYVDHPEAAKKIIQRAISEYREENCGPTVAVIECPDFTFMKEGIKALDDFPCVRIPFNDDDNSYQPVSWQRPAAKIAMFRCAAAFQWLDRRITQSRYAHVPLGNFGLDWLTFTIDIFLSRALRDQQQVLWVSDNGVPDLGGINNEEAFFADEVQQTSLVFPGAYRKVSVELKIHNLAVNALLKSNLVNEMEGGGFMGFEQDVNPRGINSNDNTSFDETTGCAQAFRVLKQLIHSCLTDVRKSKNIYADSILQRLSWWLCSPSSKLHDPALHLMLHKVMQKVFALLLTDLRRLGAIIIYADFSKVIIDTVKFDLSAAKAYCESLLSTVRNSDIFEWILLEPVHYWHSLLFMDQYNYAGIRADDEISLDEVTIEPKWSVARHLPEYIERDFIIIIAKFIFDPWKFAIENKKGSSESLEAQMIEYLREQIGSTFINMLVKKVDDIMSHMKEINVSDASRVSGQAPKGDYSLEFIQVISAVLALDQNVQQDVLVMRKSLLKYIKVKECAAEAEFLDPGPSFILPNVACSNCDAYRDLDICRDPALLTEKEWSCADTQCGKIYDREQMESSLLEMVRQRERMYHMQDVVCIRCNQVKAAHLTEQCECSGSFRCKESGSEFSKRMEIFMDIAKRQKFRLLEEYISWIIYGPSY
UniProt P41917: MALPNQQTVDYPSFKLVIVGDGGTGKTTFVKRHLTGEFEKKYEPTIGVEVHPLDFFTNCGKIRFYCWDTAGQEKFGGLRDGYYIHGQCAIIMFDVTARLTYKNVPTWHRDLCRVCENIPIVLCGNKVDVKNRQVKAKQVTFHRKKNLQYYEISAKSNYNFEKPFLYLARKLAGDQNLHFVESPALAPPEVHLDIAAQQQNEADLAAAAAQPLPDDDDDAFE
UniProt Q9FHA3: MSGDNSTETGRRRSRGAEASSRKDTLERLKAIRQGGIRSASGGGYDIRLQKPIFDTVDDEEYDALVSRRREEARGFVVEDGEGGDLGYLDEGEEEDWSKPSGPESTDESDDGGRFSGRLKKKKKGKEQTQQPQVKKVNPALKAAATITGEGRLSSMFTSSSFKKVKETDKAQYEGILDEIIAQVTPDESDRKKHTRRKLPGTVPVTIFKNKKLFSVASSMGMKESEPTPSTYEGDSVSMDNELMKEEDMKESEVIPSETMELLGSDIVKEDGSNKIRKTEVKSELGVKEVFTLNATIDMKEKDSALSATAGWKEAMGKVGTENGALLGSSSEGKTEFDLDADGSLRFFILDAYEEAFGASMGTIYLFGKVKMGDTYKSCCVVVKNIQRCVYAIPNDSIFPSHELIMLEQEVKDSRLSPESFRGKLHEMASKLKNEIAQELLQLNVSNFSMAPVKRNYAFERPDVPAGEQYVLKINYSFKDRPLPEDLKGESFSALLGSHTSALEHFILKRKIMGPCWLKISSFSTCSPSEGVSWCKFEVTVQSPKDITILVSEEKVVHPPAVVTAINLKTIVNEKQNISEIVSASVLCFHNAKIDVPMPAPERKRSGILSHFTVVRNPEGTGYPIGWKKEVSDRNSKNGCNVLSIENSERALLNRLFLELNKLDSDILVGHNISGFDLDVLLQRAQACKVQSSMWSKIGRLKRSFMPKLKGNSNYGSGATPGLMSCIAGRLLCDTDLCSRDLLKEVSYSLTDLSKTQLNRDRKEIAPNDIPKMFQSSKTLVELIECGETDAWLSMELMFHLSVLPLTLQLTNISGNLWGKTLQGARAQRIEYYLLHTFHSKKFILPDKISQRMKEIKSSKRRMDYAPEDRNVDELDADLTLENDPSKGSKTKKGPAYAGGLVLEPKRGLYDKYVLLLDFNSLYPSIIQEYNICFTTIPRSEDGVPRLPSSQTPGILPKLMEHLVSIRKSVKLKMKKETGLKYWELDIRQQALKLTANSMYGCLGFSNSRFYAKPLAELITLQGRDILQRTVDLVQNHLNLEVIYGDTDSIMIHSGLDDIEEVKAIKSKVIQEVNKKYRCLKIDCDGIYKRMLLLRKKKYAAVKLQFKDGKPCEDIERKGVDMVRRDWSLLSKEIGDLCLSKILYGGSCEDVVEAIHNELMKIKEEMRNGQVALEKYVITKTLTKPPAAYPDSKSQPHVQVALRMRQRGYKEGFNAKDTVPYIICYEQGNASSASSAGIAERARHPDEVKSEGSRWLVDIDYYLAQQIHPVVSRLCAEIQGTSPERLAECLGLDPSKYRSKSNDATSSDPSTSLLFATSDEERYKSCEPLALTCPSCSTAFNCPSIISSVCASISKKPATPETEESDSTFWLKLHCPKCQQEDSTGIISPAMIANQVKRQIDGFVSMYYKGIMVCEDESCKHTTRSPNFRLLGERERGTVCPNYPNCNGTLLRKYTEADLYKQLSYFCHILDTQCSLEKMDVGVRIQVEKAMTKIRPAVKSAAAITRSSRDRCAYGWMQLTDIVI

Assay [1] concerns the target T1, CIA1-Flag (Arabidopsis thaliana) (UniProt O80990).
T1 sequence: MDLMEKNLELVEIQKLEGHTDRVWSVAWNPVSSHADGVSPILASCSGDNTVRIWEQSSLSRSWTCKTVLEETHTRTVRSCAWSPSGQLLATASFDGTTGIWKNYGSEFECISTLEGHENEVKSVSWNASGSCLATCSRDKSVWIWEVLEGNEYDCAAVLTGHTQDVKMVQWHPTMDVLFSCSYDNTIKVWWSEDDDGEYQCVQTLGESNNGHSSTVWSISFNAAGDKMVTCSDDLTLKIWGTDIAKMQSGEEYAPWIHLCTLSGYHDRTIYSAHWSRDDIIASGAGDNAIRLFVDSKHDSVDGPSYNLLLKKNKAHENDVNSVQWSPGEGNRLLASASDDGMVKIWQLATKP

The target in assay [2] is T2, CIA2-Flag (Arabidopsis thaliana) (UniProt Q9C9G6).
T2 sequence: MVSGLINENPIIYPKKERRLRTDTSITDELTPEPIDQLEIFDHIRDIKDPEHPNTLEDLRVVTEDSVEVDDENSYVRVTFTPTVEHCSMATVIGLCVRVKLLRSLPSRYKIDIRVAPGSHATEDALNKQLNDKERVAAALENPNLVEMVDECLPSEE

Assay [3] deals with T3, MMS19-Myc (Arabidopsis thaliana) (UniProt Q0WVF8).
T3 sequence: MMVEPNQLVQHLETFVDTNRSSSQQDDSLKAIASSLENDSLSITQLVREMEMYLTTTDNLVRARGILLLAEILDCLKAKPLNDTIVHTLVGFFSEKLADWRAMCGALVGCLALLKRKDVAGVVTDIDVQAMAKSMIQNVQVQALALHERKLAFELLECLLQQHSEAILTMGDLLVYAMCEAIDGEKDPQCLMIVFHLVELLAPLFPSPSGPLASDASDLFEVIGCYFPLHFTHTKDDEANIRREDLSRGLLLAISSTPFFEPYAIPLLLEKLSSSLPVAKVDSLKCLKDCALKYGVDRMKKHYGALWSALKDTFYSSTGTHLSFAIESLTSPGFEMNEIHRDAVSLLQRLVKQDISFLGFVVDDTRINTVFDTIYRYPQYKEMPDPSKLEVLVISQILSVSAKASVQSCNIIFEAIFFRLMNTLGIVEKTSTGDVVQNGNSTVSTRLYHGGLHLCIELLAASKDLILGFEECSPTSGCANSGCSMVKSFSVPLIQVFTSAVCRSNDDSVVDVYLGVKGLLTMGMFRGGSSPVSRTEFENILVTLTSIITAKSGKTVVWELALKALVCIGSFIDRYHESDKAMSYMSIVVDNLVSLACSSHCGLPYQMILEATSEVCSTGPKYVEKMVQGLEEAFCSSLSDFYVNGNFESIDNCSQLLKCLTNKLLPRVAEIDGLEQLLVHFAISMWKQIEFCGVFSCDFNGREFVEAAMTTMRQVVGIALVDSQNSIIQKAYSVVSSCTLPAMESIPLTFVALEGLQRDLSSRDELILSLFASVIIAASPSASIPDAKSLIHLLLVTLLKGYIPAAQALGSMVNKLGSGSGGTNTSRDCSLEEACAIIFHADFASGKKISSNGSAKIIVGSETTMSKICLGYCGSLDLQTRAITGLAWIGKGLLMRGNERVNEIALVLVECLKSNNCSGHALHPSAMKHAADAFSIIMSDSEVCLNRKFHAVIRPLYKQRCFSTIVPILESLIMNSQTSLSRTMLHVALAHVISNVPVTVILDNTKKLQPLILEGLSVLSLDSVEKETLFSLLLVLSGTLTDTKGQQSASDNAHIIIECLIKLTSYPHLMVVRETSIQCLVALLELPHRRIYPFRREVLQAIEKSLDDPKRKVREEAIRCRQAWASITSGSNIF

This passage reports binding results from PMC4459967.

These are yes or no findings as the source states them, for the method shown. In cells and extracts the contact can be indirect. These calls come from enrichment with a bait or labelling near it, and not all partners need be listed. For part of these data: No binding means not detected with the bait. Sequences can lack the tags named with a protein.

As for “ABO4, catalytic subunit of DNA polymerase ε (from UniProt F4HW04 1-2161)”, the binding entry in assay [1] was “no binding”; in assay [2] it was “no binding”; in assay [3], “binds”.
For RAN2 (from UniProt P41917 1-221), the binding entry in assay [1], in assay [2] and in assay [3] was “binds” in each case.
With “ICU2, catalytic subunit of DNA polymerase α (from UniProt Q9FHA3)”, the binding entry is “no binding” in assay [1], “no binding” in assay [2] and “binds” in assay [3].
